In the supplement of paper PMC8728848:
The list shows a part of the results.

Key:
Assay in all cases: glycan array binding signal (z-score within array); higher = stronger binding
Details in all cases: glycan notation: IUPAC condensed, linker removed
[1] = biological target: Fuc(a1-2)Gal(b1-4)GlcNAc(b1-3)Gal(b1-4)GlcNAc(b1-2)Man(a1-3)[Fuc(a1-2)Gal(b1-4)GlcNAc(b1-3)Gal(b1-4)GlcNAc(b1-2)Man(a1-6)]Man(b1-4)GlcNAc(b1-4)GlcNAc
In short: (§1)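 Columns mapping to the same glycan were averaged after glycan names were converted to IUPAC-condensed notation. The data come from 3228 arrays in the Consortium for Functional Glycomics database, limited to those with an available protein sequence. Binding is reported as a within-array Z-score averaged across arrays of one protein sequence and across linkers.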

[2] = biological target: Fuc(a1-2)Gal(b1-4)GlcNAc(b1-3)Gal(b1-4)GlcNAc(b1-3)Gal(b1-4)GlcNAc
In short: as §1

[3] = biological target: Fuc(a1-2)Gal(b1-4)GlcNAc(b1-3)GalNAc
In short: as §1

[4] = biological target: Fuc(a1-2)Gal(b1-4)GlcNAc(b1-3)[Fuc(a1-2)Gal(b1-4)GlcNAc(b1-6)]GalNAc
In short: as §1

[5] = biological target: Fuc(a1-2)Gal(b1-4)GlcNAc(b1-3)[Fuc(a1-3)[Gal(b1-4)]GlcNAc(b1-6)]Gal(b1-4)Glc
In short: as §1

[6] = biological target: Fuc(a1-2)Gal(b1-4)GlcNAc(b1-6)GalNAc
In short: as §1

[7] = biological target: Fuc(a1-2)Gal(b1-4)GlcNAc6S
In short: as §1

[8] = biological target: Fuc(a1-2)Gal(b1-4)[Fuc(a1-3)]GlcNAc
In short: as §1

[9] = biological target: Fuc(a1-2)Gal(b1-4)[Fuc(a1-3)]GlcNAc(b1-2)Man(a1-3)[Fuc(a1-2)Gal(b1-4)[Fuc(a1-3)]GlcNAc(b1-2)Man(a1-6)]Man(b1-4)GlcNAc(b1-4)[Fuc(a1-6)]GlcNAc
In short: as §1

[10] = biological target: Fuc(a1-2)Gal(b1-4)[Fuc(a1-3)]GlcNAc(b1-2)[Fuc(a1-2)Gal(b1-4)[Fuc(a1-3)]GlcNAc(b1-4)]Man(a1-3)[Fuc(a1-2)Gal(b1-4)[Fuc(a1-3)]GlcNAc(b1-2)Man(a1-6)]Man(b1-4)GlcNAc(b1-4)GlcNAc
In short: as §1

[11] = biological target: Fuc(a1-2)Gal(b1-4)[Fuc(a1-3)]GlcNAc(b1-3)Gal(b1-4)[Fuc(a1-3)]GlcNAc
In short: as §1

[12] = biological target: Fuc(a1-2)Gal(b1-4)[Fuc(a1-3)]GlcNAc(b1-3)Gal(b1-4)[Fuc(a1-3)]GlcNAc(b1-3)Gal(b1-4)[Fuc(a1-3)]GlcNAc
In short: as §1

[13] = biological target: Fuc(a1-2)Gal(b1-4)[Fuc(a1-3)]GlcNAc(b1-3)GalNAc
In short: as §1

[14] = biological target: Fuc(a1-2)Gal(b1-4)[Fuc(a1-3)]GlcNAc(b1-3)[Neu5Ac(a2-6)Gal(b1-4)GlcNAc(b1-6)]Gal(b1-4)Glc
In short: as §1

[15] = biological target: Fuc(a1-2)Gal3S(b1-4)GlcNAc
In short: as §1

[16] = biological target: Fuc(a1-2)Gal6S(b1-3)GlcNAc
In short: as §1

[17] = biological target: Fuc(a1-2)Gal6S(b1-3)GlcNAc6S
In short: as §1

Fuc(a1-2)Gal6S(b1-4)Glc = biological target: Fuc(a1-2)Gal6S(b1-4)Glc
In short: as §1

[18] = biological target: Fuc(a1-2)Gal6S(b1-4)Glc6S
In short: as §1

Fuc(a1-2)[Gal(a1-3)]Gal = biological target: Fuc(a1-2)[Gal(a1-3)]Gal
In short: as §1

[19] = biological target: Fuc(a1-2)[Gal(a1-3)]Gal(b1-3)GalNAc
In short: as §1

[20] = biological target: Fuc(a1-2)[Gal(a1-3)]Gal(b1-3)GalNAc(b1-3)Gal(a1-4)Gal(b1-4)Glc
In short: as §1

[21] = biological target: Fuc(a1-2)[Gal(a1-3)]Gal(b1-3)GlcNAc
In short: as §1

[22] = biological target: Fuc(a1-2)[Gal(a1-3)]Gal(b1-3)GlcNAc(b1-2)Man(a1-3)[Fuc(a1-2)[Gal(a1-3)]Gal(b1-3)GlcNAc(b1-2)Man(a1-6)]Man(b1-4)GlcNAc(b1-4)GlcNAc
In short: as §1

[23] = biological target: Fuc(a1-2)[Gal(a1-3)]Gal(b1-3)GlcNAc(b1-2)Man(a1-3)[Fuc(a1-2)[Gal(a1-3)]Gal(b1-3)GlcNAc(b1-2)Man(a1-6)]Man(b1-4)GlcNAc(b1-4)[Fuc(a1-6)]GlcNAc
In short: as §1

[24] = biological target: Fuc(a1-2)[Gal(a1-3)]Gal(b1-3)GlcNAc(b1-3)GalNAc
In short: as §1

[25] = biological target: Fuc(a1-2)[Gal(a1-3)]Gal(b1-3)GlcNAc(b1-6)GalNAc
In short: as §1

[26] = biological target: Fuc(a1-2)[Gal(a1-3)]Gal(b1-4)Glc
In short: as §1

[27] = biological target: Fuc(a1-2)[Gal(a1-3)]Gal(b1-4)GlcNAc
In short: as §1

[28] = biological target: Fuc(a1-2)[Gal(a1-3)]Gal(b1-4)GlcNAc(b1-2)Man
In short: as §1

[29] = biological target: Fuc(a1-2)[Gal(a1-3)]Gal(b1-4)GlcNAc(b1-2)Man(a1-3)[Fuc(a1-2)[Gal(a1-3)]Gal(b1-4)GlcNAc(b1-2)Man(a1-6)]Man(b1-4)GlcNAc(b1-4)GlcNAc
In short: as §1

[30] = biological target: Fuc(a1-2)[Gal(a1-3)]Gal(b1-4)GlcNAc(b1-2)Man(a1-3)[Fuc(a1-2)[Gal(a1-3)]Gal(b1-4)GlcNAc(b1-2)Man(a1-6)]Man(b1-4)GlcNAc(b1-4)[Fuc(a1-6)]GlcNAc
In short: as §1

[31] = biological target: Fuc(a1-2)[Gal(a1-3)]Gal(b1-4)GlcNAc(b1-3)GalNAc
In short: as §1

[32] = biological target: Fuc(a1-2)[Gal(a1-3)]Gal(b1-4)GlcNAc(b1-6)GalNAc
In short: as §1

[33] = biological target: Fuc(a1-2)[Gal(a1-3)]Gal(b1-4)[Fuc(a1-3)]Glc
In short: as §1

[34] = biological target: Fuc(a1-2)[Gal(a1-3)]Gal(b1-4)[Fuc(a1-3)]GlcNAc
In short: as §1

[35] = biological target: Fuc(a1-2)[Gal(a1-3)]Gal(b1-4)[Fuc(a1-3)]GlcNAc(b1-3)GalNAc
In short: as §1

B1: SspB C123 (Streptococcus gordonii), Q54186 (protein)
chain: MAHFHYSSLLAQPQINKEIKNEDGVDIDRTLVAKQSIGKFELKTEALTAGRPKTTSFVLVDPLPTGYKFDLDATKAASTGFDTTYDEASHTVTFKATDETLATYNADLTKPVETLHPTVVGRVLNDGATYTNNFTLTVNDAYGIKSNVVRVTTPGKPNDPDNPNNNYIKPTKVNKNKEGLNIDGKEVLAGSTNYYELTWDLDQYKGDKSSKEAIQNGFYYVDDYPEEALDVRPDLVKVADEKGNQVSGVSVQQYDSLEAAPKKVQDLLKKANITVKGAFQLFSADNPEEFYKQYVSTGTSLVITDPMTVKSEFGKTGGKYENKAYQIDFGNGYATEVVVNNVPKITPKKDVTVSLDPTSENLDGQTVQLYQTFNYRLIGGFIPQNHSEELEDYSFVDDYDQAGDQYTGNYKTFSSLNLTMKDGSVIKAGTDLTSQTTAETDATNGIVTVRFKEDFLQKISLDSPFQAETYLQMRRIAIGTFENTYVNTVNKVAYASAAALEHHHHHH
glycan array binding signal (z-score) [1]: 0.511 | glycan array binding signal (z-score) [2]: -0.573 | glycan array binding signal (z-score) [3]: -0.78 | glycan array binding signal (z-score) [4]: -0.475 | glycan array binding signal (z-score) [5]: -0.458 | glycan array binding signal (z-score) [6]: -0.144 | glycan array binding signal (z-score) [7]: -0.494 | glycan array binding signal (z-score) [8]: -0.903 | glycan array binding signal (z-score) [9]: 0.993 | glycan array binding signal (z-score) [10]: 1.54 | glycan array binding signal (z-score) [11]: -0.699 | glycan array binding signal (z-score) [12]: -0.604 | glycan array binding signal (z-score) [13]: 3.99 | glycan array binding signal (z-score) [14]: 0.225 | glycan array binding signal (z-score) [15]: -1.02 | glycan array binding signal (z-score) [16]: -0.547 | glycan array binding signal (z-score) [17]: 0.031 | glycan array binding signal (z-score) (Fuc(a1-2)Gal6S(b1-4)Glc): -0.489 | glycan array binding signal (z-score) [18]: -0.576 | glycan array binding signal (z-score) (Fuc(a1-2)[Gal(a1-3)]Gal): -0.352 | glycan array binding signal (z-score) [19]: -0.114 | glycan array binding signal (z-score) [20]: -1.04 | glycan array binding signal (z-score) [21]: -0.253 | glycan array binding signal (z-score) [22]: 0.387 | glycan array binding signal (z-score) [23]: 1.38 | glycan array binding signal (z-score) [24]: -0.239 | glycan array binding signal (z-score) [25]: -0.18 | glycan array binding signal (z-score) [26]: -0.349 | glycan array binding signal (z-score) [27]: -0.371 | glycan array binding signal (z-score) [28]: -1.81 | glycan array binding signal (z-score) [29]: 1.42 | glycan array binding signal (z-score) [30]: 0.612 | glycan array binding signal (z-score) [31]: -0.581 | glycan array binding signal (z-score) [32]: -0.149 | glycan array binding signal (z-score) [33]: -0.277 | glycan array binding signal (z-score) [34]: -0.222 | glycan array binding signal (z-score) [35]: 0.504
